The values are deposited in ChEMBL (CHEMBL3988442, “University of Dundee, Small-Polar-MMV Screening Library” (2021)).

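Viability assay of Plasmodium falciparum sporozoites; the read-out is not stated. The concentration is filed as 10 mM, unlikely as a test dose, so the dose is not known. The record gives no direction; compounds that gave an IC50 in retests scored well above the rest, so higher reads as lower viability. Strong results were mostly tested again. About 34,000 compounds were tested under these conditions; 0.84% (about 280) showed 50% or more at least once.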

Values are the deposited “Percent Effect”, in %.
The record does not define 0% and 100%; most values in the screen are far below 50% and negative numbers occur (in some assays of this library far below -100).
Compounds were drawn at random from those tested, without regard to their results.
Two or more numbers in one place are separate tests of the same structure; such repeats can differ widely.

{"compound": "COc1cccc(CN2CCC3(CC(Nc4ccncn4)C3)C2)c1F", "stereo": "configuration not stated", "percent effect": 5.596}
{"compound": "CCCc1nc(CNc2ccc(F)c(F)c2)no1", "percent effect": -17.08}
{"compound": "CCc1ccc(CNC(=O)CCNS(=O)(=O)c2cn(C)c(C)n2)s1", "percent effect": -13.03}
{"compound": "CCn1ncc(NC(=O)c2cc(C3CC3)nc3c2c(C)nn3C)c1C", "percent effect": -8.716}
{"compound": "Cc1nn(C)c(Cl)c1C1CCCN1Cc1nnc(C2CC2)n1C", "stereo": "configuration not stated", "percent effect": -2.519}
{"compound": "Cc1cnccc1-c1cnn(CCNC(=O)C(C)(C)C)c1C1CC1.Cl", "percent effect": 3.06}
{"compound": "COCCOc1ncccc1C(=O)N1CCCC1Cn1cc(C)cn1", "stereo": "configuration not stated", "percent effect": 7.553}
{"compound": "Cc1ncc2c(n1)CN(Cc1nnc(Cc3ccccc3)o1)CC2", "percent effect": "10.28 & 4.872 & -12.29"}
{"compound": "CCc1nc(C(=O)N2CCCCC2)nn1-c1ccccc1Cl", "percent effect": -3.501}
{"compound": "CN(C)CC1(O)CCN(S(=O)(=O)c2ccc(F)cc2)C1", "stereo": "configuration not stated", "percent effect": -6.043}
{"compound": "COC[C@H]1CCC[C@]12CN(C(=O)NCc1ccccc1)CCO2", "percent effect": -15.57}
{"compound": "CN(C)c1ncc(-c2cc(C(=O)NCCC#N)n(CC3CC3)c2)cn1.O=C(O)C(F)(F)F", "percent effect": -2.775}
{"compound": "CCn1cncc1CN1CCc2nc3sccc3c(=O)n2CC1", "percent effect": 3.614}
{"compound": "CS(=O)(=O)NC1CCN(C(=O)NCC2CCCO2)CC1", "stereo": "configuration not stated", "percent effect": -18.98}
{"compound": "Cc1nn(C)c(C)c1C1CCCN1Cc1nc(-c2ccco2)no1", "stereo": "configuration not stated", "percent effect": "13.06 & 11.57 & 36.68"}
{"compound": "CCn1cnnc1C1CCN(C(=O)c2cccc(C)c2C)CC1", "percent effect": 9.434}
{"compound": "Cc1cc(C(F)(F)F)nn1CC(C)C(=O)Nc1ccncc1", "stereo": "configuration not stated", "percent effect": 1.974}
{"compound": "Cn1cc(C(=O)N2CCCN(c3cccnn3)CC2)c2ccccc21", "percent effect": "1.633 & 5.094"}
{"compound": "O=C(COc1ccc(C(F)(F)F)cc1)N1CCOCC1c1ncon1", "stereo": "configuration not stated", "percent effect": "3.863 & 3.016 & 20.19"}
{"compound": "CCc1nccn1C1CCCN(C(=O)c2ccc(N(C)C)nn2)C1", "stereo": "configuration not stated", "percent effect": -5.218}
{"compound": "O=c1cc(C2CCNCC2)nc(Cc2cccc(Cl)c2)[nH]1", "percent effect": -3.094}
{"compound": "Cc1ccccc1-c1cc(CC2(C(=O)O)CCOCC2)on1", "percent effect": 4.841}
{"compound": "COc1c(C2CCCN2C(=O)c2ccc(C#N)c(C)n2)c(C)nn1C", "stereo": "configuration not stated", "percent effect": 0.8748}
{"compound": "CC(C)(C(=O)NCC(N)=O)c1ccccc1F", "percent effect": -8.511}
{"compound": "CC(C)NC(=O)CC1(Cn2cnnn2)CCCCC1", "percent effect": -6.449}
{"compound": "Cc1n[nH]c(C)c1NC(=O)CN1CCCC1c1noc(C2CC2)n1", "stereo": "configuration not stated", "percent effect": 0.1952}
{"compound": "O=C(CCCNC(=O)Nc1ccc(F)cc1)Nc1cn[nH]c1", "percent effect": -5.882}
{"compound": "Nc1nc(CN2CCCC2Cn2cncn2)nc2ccccc12", "stereo": "configuration not stated", "percent effect": "4.562 & 4.2 & 16.33"}
{"compound": "Cc1cc(-c2cnc(N3CCSCC3)nc2C(C)C)on1", "percent effect": -82.45}
{"compound": "Cc1ccc(C2CCCN(S(=O)(=O)N3CCOCC3)C2)nc1", "stereo": "configuration not stated", "percent effect": -4.985}
{"compound": "NC(=O)C1CN(C(=O)Nc2ccccc2N2CCCCCC2)CCO1", "stereo": "configuration not stated", "percent effect": -3.759}
{"compound": "Cc1nc(C)n(CC2CCCCN2c2ncnc3ccsc23)n1", "stereo": "configuration not stated", "percent effect": -2.042}
{"compound": "Cc1cccc(CN2CC3(CCN(C(=O)C4CC4)CC3)OCC2=O)n1", "percent effect": "-24.37 & -29.6 & 0.7895"}
{"compound": "O=C(Cc1ccc(F)c(F)c1)NC1COc2ccccc2C1=O", "stereo": "configuration not stated", "percent effect": -10.99}
{"compound": "CC(C)N(C)[C@@H]1CCN(C(=O)c2ccc[nH]2)[C@H]1Cc1cnn(C)c1", "percent effect": -14.84}
{"compound": "O=C(O)C(F)(F)F.[H][C@@]12CCCO[C@]1([H])[C@H](N(C)Cc1ccco1)CN(C(=O)c1ccnnc1)C2", "percent effect": -4.21}
{"compound": "Cc1cnc(CN2CCN(c3ccc4nncn4n3)C(C)C2)cn1", "stereo": "configuration not stated", "percent effect": 6.962}
{"compound": "O=c1c2c(ncn1CCO)nc1n2CCC1", "percent effect": 16.54}
{"compound": "CC(C)(C)NC(=O)NC(=O)CNC(C)(C)c1ccc2c(c1)OCCO2", "percent effect": 7.68}
{"compound": "Cc1cc(C)n(CCCNC(=O)NCc2c(C)cc(C)[nH]c2=O)n1", "percent effect": 0.9126}
{"compound": "CC(c1cccc(S(N)(=O)=O)c1)N(C)CCOc1ccccc1", "stereo": "configuration not stated", "percent effect": 4.444}
{"compound": "[H][C@@]12CCN(S(=O)(=O)C3CC3)C[C@@]1([H])O[C@@H](c1ccnc(C)n1)C2", "percent effect": 2.719}
{"compound": "CCn1c(C2CCCN(S(=O)(=O)C3CC3)C2)nn(CCN(C)C)c1=O", "stereo": "configuration not stated", "percent effect": -19.21}
{"compound": "CS(=O)(=O)CCCN1CCN(C(C#N)c2ccccc2)CC1", "stereo": "configuration not stated", "percent effect": -9.615}
{"compound": "CCn1ncnc1C(NC(=O)CC1CCN(C(C)C)CC1)C1CC1", "stereo": "configuration not stated", "percent effect": -2.768}
{"compound": "Cn1ccnc1CNC(=O)CC1CCCCO1", "stereo": "configuration not stated", "percent effect": -2.695}
{"compound": "Cc1ccc(CN2Cc3nnn(C)c3C(COCc3ccccc3)C2)s1.O=C(O)C(F)(F)F", "stereo": "configuration not stated", "percent effect": -5}
{"compound": "[H][C@@]12CCN(C(=O)c3cc(C)[nH]c3C)C[C@@]1([H])O[C@@H](c1ccncn1)C2", "percent effect": -3.163}
{"compound": "CC(C)c1ccc(CN[C@@H]2COC[C@H]2c2ccc(F)cc2)cc1", "percent effect": -2.454}
{"compound": "N#Cc1cccc(S(=O)(=O)N(CC2CCC2)c2cn[nH]c2)c1", "percent effect": -20.75}
{"compound": "CCCc1n[nH]c(C2CN(C(=O)c3cccc4cn[nH]c34)CCO2)n1", "stereo": "configuration not stated", "percent effect": -9.979}
{"compound": "Cc1cccc(-c2ccc(C(=O)NCCN(C)C3CC3)c(=O)[nH]2)c1", "percent effect": 6.56}
{"compound": "CCOc1cc(F)ccc1NS(=O)(=O)c1cc(C)c(C(=O)O)s1", "percent effect": -0.4614}
{"compound": "Cc1nc2cc(O)nn2c(C)c1CCC(=O)N(C)Cc1cscn1", "percent effect": 1.917}
{"compound": "COCCN1CCc2ncnc(NC3CC3)c2CC1", "percent effect": -5.779}
{"compound": "COCCN1CCN(C(C)C(=O)Nc2ccnn2C(C)C)CC1", "stereo": "configuration not stated", "percent effect": -4.51}

Some entries from above, unchanged:

compound,percent effect
O=C(Cc1ccc(F)c(F)c1)NC1COc2ccccc2C1=O (configuration not stated),-10.99
Cc1ncc2c(n1)CN(Cc1nnc(Cc3ccccc3)o1)CC2,10.28 & 4.872 & -12.29
O=C(COc1ccc(C(F)(F)F)cc1)N1CCOCC1c1ncon1 (configuration not stated),3.863 & 3.016 & 20.19